The target of this assay is Mcl-1 (human (endogenous in XG-2 and KMS-12PE)), Q07820. Nature of the assay: co-IP; endogenous proteins; XG-2 and KMS-12PE lysates (1% digitonin lysis buffer) immunoprecipitated with anti-Bcl-2 or anti-Mcl-1 antibodies, western blot. The note with it: remark: other sources report otherwise. (In general: A western blot detects proteins with antibodies after separation by electrophoresis.)

No constants are given. Whether binding was seen depends on the method and setting. In cells and extracts the contact can be indirect.

B1: Bik, Q13323 1-160 (protein)
chain: MSEVRPLSRDILMETLLYEQLLEPPTMEVLGMTDSEEDLDPMEDFDSLECMEGSDALALRLACIGDEMDVSLRAPRLAQLSEVAMHSLGLAFIYDQTEDIRDVLRSFMDGFTTLKENIMRFWRSPNPGSWVSCEQVLLALLLLLALLLPLLSGGLHLLLK
In the case of B1, the binding result is listed as “no binding”.
